Measurements from article PMC3352087.
Where a chain is given by its changes, count along the chain named. Numbers in names are those of the source. These are yes or no findings as the source states them, for the method shown. Some entries that bind do so weakly or less than the wild type.

B1: Cut14 (protein, UniProt P41003 1-1172)
chain: MKIEELIIDGFKSYAVRTVISNWDDQFNAITGLNGSGKSNILDAICFVLGITNMSTVRAQNLQDLIYKRGQAGITRASVTIVFNNRDPASSPIGFENHPQVSVTRQIIMGGTSKYLINGHRALQQNVQNLFQSVQLNINNPNFLIMQGRITKVLNMKATEILSMIEEASGTRMFEERKEKAFRTMQRKEAKVEEINTLLREEIEPRLTKLRTEKKTFLEYQHIYNDLERLSHLCTAYDYYKLSLKVEELTVQASQKHSHIAEMESSLQTSKQEVLILKEKIKKIEDERMRQMSVSSDRTLDSQLQTVNENITRISTSIELKNTALEEEHGDLQQIRGKAKELETLLRGKRKRLDEVLSVYEKRKDEHQSISKDFKSQEELISSLTTGLSTTEGHETGYSRKLHEARDTLNDFKAEKETNRLKLEGLNKQISLTKPKKAEATKRCDQLNREIDILQNHVEKLKMSLKNTNSDITGEDVLQQKLKQLAKDRGNLLNELDALKSKLAYMEFTYTDPTPNFDRSKVKGLVAQLLTLNEENYDKQTALEITAGGRLYNLIVETEKIGAQLLQKGNLKRRVTIIPLNKITSFVASAERVGAAKKISNNKAQLALELIGYDDELLPAMQYVFGSTLVCDTPESAKKVTFHPSVKLKSVTLDGDVYDPSGTLTGGSVNKSAGPLLQIQKLNSLQLKLQVVTSEYEKLETQLKDLKTQNANFHRLEQEIQLKQHELTLLIEQRETDSSFRLLSDYQQYKDDVKDLKQRLPELDRLILQSDQAIKKIERDMQEWKHNKGSKMAELEKEFNQYKHKLDEFTPILEKSENDYNGVKLECEQLEGELQNHQQSLVQGESTTSLIKTEIAELELSLVNEEHNRKKLTELIEIESAKFSGLNKEIDSLSTSMKTFESEINNGELTIQKLNHEFDRLEREKSVAITAINHLEKENDWIDGQKQHFGKQGTIFDFHSQNMRQCREQLHNLKPRFASMRKAINPKVMDMIDGVEKKEAKLRSMIKTIHRDKKKIQDTVKSIDRFKRSALEKTWREVNSSFGEIFDELLPGNSAELQPPENKEFTDGLEIHVKIGSIWKDSLAELSGGQRSLVALALIMSLLKYKPAPMYILDEIDAALDLSHTQNIGRLIKTKFKGSQFIIVSLKEGMFTNANRLFHVRFMDGSSVVQAR
B2: Cut14-Y1 mutant protein (L543S) (protein, UniProt P41003 1-1172)
chain: B1 chain with L543S
B3: Cnd1 (protein, UniProt O94679 1-1158)
chain: MSLDLLSRLKKYIHDEENSDLDSIYAECENAGLTAVVNDVIDTLLLGTSSCFDEDCLEKLFAICSHFADLSSSVRNKVYDLLTSNISSESAILEDMISANATDFTVPQTNLETTGIAFQLTVNSLSSSNQLSVIRSSTNTVKGRKKNPTTNSNWNGISHVNALLDAIITLFQKKLSRVWTTSSERDMFLSLFLKPIYTLMESEINIKNASFRSRLFNIIGLAVQFHNHTTAAETNIIQNLQYFEHLSEYAADLVHIVTVQFNSVTLAEGIIRTLCSLEFNDNDVKGPKQVALFLVRLSSLIPNLCLKQLTQLVKLLDSESYTLRCAIIEVLANVVIDQIHDEAQNEMSESVPATVQSLMDLLSERLLDISPYCRTKVLHVFIKIFDLPIKYPRKRQEIAELVIRCLQDRSSHVRRNAIKLFSKLLTTHPFSVMHNGLLTRNIWEKGLSIIEEQLNSLQPKQQEKVVDSELEVDENLLEDATMIQDDESHEGESHLENSLSEYVDSVPAEEIVKVNLTKRFYLEALQYIDIVEAGAKIISQLLFAKNKSEVIESMDFFVFCNSFGISSSKLYIKKMIHLIWVKGTSDEGNNIQNHVLSCYKTLFFEPPPNSGTNEAANYIARNLISLTYDASLAELTSLEQMLCILMKDGYFSHLVITKLWQVYSYQKKDISRTQRRGSIIVIGMLALGNTDVVMQGLDHLIQIGLGPPGLEDLVLARYTCIAIKRIGKDASGSSNINFPNSHTLCQKLCMLLLRPSFSEEWFGLEEQAIEAIYAVAKHPDELCTNIILLLTKQLFKPSNHENTTSNDDHAMDEDLDDSPEEETLKDEEEIGIRLAHLIFLVGHVAIKQLVYIEYCEAEFKRRKADAERLAVQNSNNPINGQETSEYDLITGTSEDDFSEAMTFIRERELLYGENSLLSRFAPLVVELCSNHKSHNNQSLLLAASLTLSKFMCLSNNFCMEHLPLLITILEKCDNPIIRNNLVIGLADLTVCFNHFIDEISEYLYRRLMDEESSVKKTCFMTLAFLILAGQIKVKGQLGIMARSLEDEDARISDLARMFFTDFAAKDNSVYNNFIDIFSVLSRSAEEQDEDDAKFKRIIRFLTSFIEKERHTKQLAERLAARLDRCKTQRQWDHVVYALSLLPHKADNIQKLIDDGYHE
B4: Cnd2 (protein, UniProt Q9Y7R3 1-742)
chain: MKRASLGGHAPVSLPSLNDDALEKKRAKENSRKQRELRRSSALHSITPRRESLNNSSPFNSSHQVPVLSNFEEWIKLATDNKINSTNTWNFALIDYFHDMSLLRDGEDINFQKASCTLDGCVKIYTSRIDSVATETGKLLSGLANDSKVLQQTEEGEDAENDDEDLQKKKERKRAQRSVKTLVKDFESIRAKKFELECSFDPLFKKMCADFDEDGAKGLLMNHLCVDQHGRIVFDSSDTVIKDLENKDVEAESQEAVVAAPIESHDTEMTNVHDNISRETLNGIYKCYFTDIDQLTICPSLQGFEFDSKGNLDVSLLKSLSDEVNMITTTSLVDNTMEKTDADAASLSSDSDGEEGHIVHALEEMAYDEENPYVDVVPKAMDESENPDFGVDTEVNMADGSTMNENYSIISTAAANGVYEYFDKSMKKNWAGPEHWRIQALRKNINNASTVFNSSNTAESSDNVSRSLSSTERKKRRELDNAIDFLQEVDVEALFTPATSSLKLPKSHWKRHNRCLLPDDYQYDSKRLLQLFLKPKMSVLPNADGEGQLQLNKALDDENDLDGIQPHGFDSDGSDNVDEGIPPYGFGDSDSPKQTPLLTPPSSSGFGDNLLLTARLAKPDMLNYAKRAKKVDVRVLKEKLWKCLDLENTIKENSINSHIEGSEMESEETNMPVKSFFSTVNQLEETYEKKELKDISTSFAFICVLHLANEHNLELTSNEDFSDVFIRPGPNLTTLEALENDV
B5: Cnd3 (protein, UniProt Q10429 1-875)
chain: MSCIQIISSSQTSIAGHRKLCNKLFTLRTQEGFETDILRALNIILTVKKGNSNADRVLRFLVTFVNYLQQKDPEIDIVQPILKHILRGLDAKDKTVRYRCCQIIARVVNCVKEIDDDLYNTLKEKLLSRVLDRESIVRLEAVVALSRLQEDTGDEENDVRNILLFLLQNDPSSEVRRSVLLNIEVSNSTLPFILERARDVDAANRKCVYARVLPKIGDFRYLSIKKRVRILKWGLNDRDESVEKAAADMLAYQWIENADNNLLELLERLDVSNNSDVAVLAIKKFFDVRVDSLSQLEFPEQFWLELTAESSLLARTFNEICIEKNYTDLLDKMPEVVQLTYYIERQYVSLRDKSSYDESCFIIEQLLYIGLSQDMVDEIGRRKLLKSLTNSLSTMALPDSLISLHIELLRKLCSSENDFCSLLVEIITEVFEQGHSQNQTEEQGNSNAPELNKNDYEGEEITVSQKSPSPSLPPNELNEPEPDDMDGYKEAFNELRCLSYVQCLFENITSSLNENLYMVDMLKTLIIPAVRSHDLPIREKGLECLSLVCLLNADLAFENVPLYLHCYEKGSVVLKCTAIRTLTDMLIQHGKAKFTEYEDAISSILFEALGEFENAELQTLGAEAIAKLLVILHYRDELFLKPLIIQYFEPNTVDNHALRQVLGYFFPVYAFGAHENQWRIATIFCDALLSLLEIYRDLDEDDVQLSIGHIAQQMLDWTDNEKLYERKTQTGDDYIALNHNVHLHLANMIFESLPNASEGKERKFMISLLGKLKIPTDLPSSDYQRTKRKLETYESHGFTMDSTSLSILAKFERMLLQNEEARSKFEETEEERLMENAEENEHAGAEAISGEIIPDTVEANMEDEEEVYVKQEEDL

target: T1, Cut3 (S. pombe) (UniProt P41004); test: co-purification (affinity chromatography, SDS-PAGE); subunits simultaneously overexpressed in S. pombe cells; complexes purified as in refs 20,21; SDS-PAGE stained with Coomassie brilliant blue; bait and tag not stated
T1 sequence: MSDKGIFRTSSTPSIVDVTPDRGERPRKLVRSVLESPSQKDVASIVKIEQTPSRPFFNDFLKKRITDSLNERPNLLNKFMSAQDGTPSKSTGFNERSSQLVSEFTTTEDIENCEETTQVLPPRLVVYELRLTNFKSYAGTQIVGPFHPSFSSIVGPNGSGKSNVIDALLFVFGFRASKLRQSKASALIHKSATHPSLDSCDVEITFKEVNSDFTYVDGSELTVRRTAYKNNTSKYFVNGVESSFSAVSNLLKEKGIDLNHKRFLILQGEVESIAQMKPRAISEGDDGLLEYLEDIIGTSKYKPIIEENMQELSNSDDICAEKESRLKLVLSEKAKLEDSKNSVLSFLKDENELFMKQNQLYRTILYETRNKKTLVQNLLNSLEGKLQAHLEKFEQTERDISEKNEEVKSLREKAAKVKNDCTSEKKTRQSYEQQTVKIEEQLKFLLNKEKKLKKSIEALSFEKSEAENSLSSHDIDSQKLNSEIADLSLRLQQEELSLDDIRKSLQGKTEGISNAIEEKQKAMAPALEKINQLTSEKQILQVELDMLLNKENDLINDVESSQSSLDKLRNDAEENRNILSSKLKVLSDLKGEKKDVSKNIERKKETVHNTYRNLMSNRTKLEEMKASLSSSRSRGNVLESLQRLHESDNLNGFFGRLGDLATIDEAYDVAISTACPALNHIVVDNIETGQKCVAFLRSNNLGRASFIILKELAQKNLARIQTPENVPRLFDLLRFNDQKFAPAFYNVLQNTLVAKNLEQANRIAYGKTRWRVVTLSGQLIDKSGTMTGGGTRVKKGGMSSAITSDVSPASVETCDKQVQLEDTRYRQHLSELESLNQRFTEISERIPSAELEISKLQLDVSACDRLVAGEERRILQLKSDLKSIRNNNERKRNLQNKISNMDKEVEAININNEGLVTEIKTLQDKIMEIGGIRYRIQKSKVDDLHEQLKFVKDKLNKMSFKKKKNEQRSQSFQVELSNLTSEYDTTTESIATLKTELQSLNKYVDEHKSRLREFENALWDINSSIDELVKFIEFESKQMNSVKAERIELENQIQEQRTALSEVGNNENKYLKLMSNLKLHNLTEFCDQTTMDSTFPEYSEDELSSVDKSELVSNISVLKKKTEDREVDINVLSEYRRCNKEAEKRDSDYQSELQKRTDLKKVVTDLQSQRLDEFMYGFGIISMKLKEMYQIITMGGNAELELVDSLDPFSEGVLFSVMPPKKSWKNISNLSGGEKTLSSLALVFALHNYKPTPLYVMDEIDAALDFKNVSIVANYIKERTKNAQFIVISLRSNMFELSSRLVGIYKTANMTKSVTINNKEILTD

binding, binds:
B1, B2, B3, B4, B5

target: T2, Cnd2 (S. pombe) (UniProt Q9Y7R3); test: as above
T2 sequence: B4 chain

binding, binds:
B3, B5
